Record: PubChem BioAssay AID504791 (Drosophila RNAi Screening Center, 2011)

Test: 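Genes of the fly required for silencing by miRNA, siRNA or endo-siRNA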 (primary screen)
Cell system: Drosophila S2-derived reporter cells
Reagents: long dsRNA against Drosophila genes, about 150-250 ng dsRNA per well (siRNA assay); about 80-120 ng (miRNA assay)
Timing: about 5 days (siRNA assay); about 4 days (miRNA assay)
Conditions: copper sulfate induction of reporters: 25 µM (siRNA assay); 200 mM stated (miRNA assay), 1-2 days before reading
Measured: 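Dual luciferase assay: Renilla to firefly signal ratio in each well, scaled to the mean ratio of its plate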
Active means: 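a well was a first-pass pick when its plate-scaled ratio rose above 1.5 (siRNA assay) or 1.6 (miRNA assay), or dropped below 0.6; a gene counted only if two separate dsRNAs agreed on retest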
In all, the deposit lists about 23,000 reagents; this is a random part of those with a known target gene and a result. In the full data, 199 (0.86%) are marked active. 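Plate-scaled ratios behind the calls are not deposited; printed light signals are raw; many rows marked increased or decreased are still called inactive.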 A plus sign joins genes that one reagent is predicted to hit. Not stated in the record: the direction of the score.

Rpn11 (Regulatory particle non-ATPase 11) [DRSC03422] → stable siRNA reporter change: reporter ratio raised past the hit cutoff; stable assay Renilla, run 1 (luminescence): 4604; stable assay firefly, run 1 (luminescence): 1.59e5; outcome: active
Polr2J (RNA polymerase II subunit J) [DRSC02995] → stable assay Renilla, run 1 (luminescence): 6883; stable assay firefly, run 1 (luminescence): 3.91e5; outcome: inactive
CG12693 [DRSC17882] → stable assay Renilla, run 1 (luminescence): 5480; stable assay firefly, run 1 (luminescence): 3.10e5; outcome: inactive
CG9316 [DRSC03195] → stable assay Renilla, run 1 (luminescence): 7638; stable assay firefly, run 1 (luminescence): 3.83e5; outcome: inactive
Mis12 [DRSC10299] → stable assay Renilla, run 1 (luminescence): 5476; stable assay firefly, run 1 (luminescence): 3.80e5; outcome: inactive
hry (hairy) [DRSC11353] → stable assay Renilla, run 1 (luminescence): 5535; stable assay firefly, run 1 (luminescence): 2.27e5; outcome: inactive
hry (hairy) [DRSC23249] → stable assay Renilla, run 1 (luminescence): 3440; stable assay firefly, run 1 (luminescence): 2.70e5; outcome: inactive
mRpL15 (mitochondrial ribosomal protein L15) [DRSC11771] → stable assay Renilla, run 1 (luminescence): 7096; stable assay firefly, run 1 (luminescence): 3.00e5; outcome: inactive
mim (missing-in-metastasis) [DRSC05013] → stable assay Renilla, run 1 (luminescence): 5279; stable assay firefly, run 1 (luminescence): 2.10e5; outcome: inactive
mim (missing-in-metastasis) [DRSC23045] → stable assay Renilla, run 1 (luminescence): 4164; stable assay firefly, run 1 (luminescence): 2.90e5; outcome: inactive
CG2875 [DRSC18231] → stable assay Renilla, run 1 (luminescence): 7537; stable assay firefly, run 1 (luminescence): 4.51e5; outcome: inactive
CG34353 [DRSC14493] → stable assay Renilla, run 1 (luminescence): 7431; stable assay firefly, run 1 (luminescence): 6.33e5; outcome: inactive
CG34353 [DRSC14517] → stable assay Renilla, run 1 (luminescence): 5936; stable assay firefly, run 1 (luminescence): 5.73e5; outcome: inactive
CG34353 [DRSC14563] → stable assay Renilla, run 1 (luminescence): 6018; stable assay firefly, run 1 (luminescence): 4.46e5; outcome: inactive
CG34353 [DRSC15837] → stable assay Renilla, run 1 (luminescence): 5870; stable assay firefly, run 1 (luminescence): 4.19e5; outcome: inactive
CG34353 [DRSC22429] → miRNA reporter change: reporter ratio lowered past the hit cutoff; stable assay Renilla, run 1 (luminescence): 4512; stable assay firefly, run 1 (luminescence): 3.99e5; outcome: inactive
wde (windei) [DRSC05955] → stable assay Renilla, run 1 (luminescence): 8499; stable assay firefly, run 1 (luminescence): 3.35e5; outcome: inactive
Muc11A (Mucin 11A) [DRSC19498] → stable assay Renilla, run 1 (luminescence): 5450; stable assay firefly, run 1 (luminescence): 4.71e5; outcome: inactive
CycE (Cyclin E) [DRSC03295] → stable assay Renilla, run 1 (luminescence): 8433; stable assay firefly, run 1 (luminescence): 1.73e6; outcome: inactive
CycE (Cyclin E) [DRSC03296] → stable siRNA reporter change: reporter ratio lowered past the hit cutoff; stable assay Renilla, run 1 (luminescence): 4423; stable assay firefly, run 1 (luminescence): 5.53e5; outcome: active
CG32551 [DRSC19259] → stable assay Renilla, run 1 (luminescence): 4239; stable assay firefly, run 1 (luminescence): 3.73e5; outcome: inactive
BEAF-32 + CG42254 (retired record) [DRSC05503] → stable assay Renilla, run 1 (luminescence): 6791; stable assay firefly, run 1 (luminescence): 5.05e5; outcome: inactive
CG42402 [DRSC21116] → stable assay Renilla, run 1 (luminescence): 5767; stable assay firefly, run 1 (luminescence): 3.51e5; outcome: inactive
CG6220 [DRSC06969] → stable assay Renilla, run 1 (luminescence): 6866; stable assay firefly, run 1 (luminescence): 3.59e5; outcome: inactive
igl (igloo) [DRSC07631] → stable assay Renilla, run 1 (luminescence): 15982; stable assay firefly, run 1 (luminescence): 5.66e5; outcome: inactive
Fer2LCH (Ferritin 2 light chain homologue) [DRSC16672] → stable assay Renilla, run 1 (luminescence): 6944; stable assay firefly, run 1 (luminescence): 4.69e5; outcome: inactive
Syt12 (Synaptotagmin 12) [DRSC19359] → stable assay Renilla, run 1 (luminescence): 4471; stable assay firefly, run 1 (luminescence): 3.11e5; outcome: inactive
CG5024 [DRSC15698] → stable assay Renilla, run 1 (luminescence): 6506; stable assay firefly, run 1 (luminescence): 3.74e5; outcome: inactive

Part of the list above, set out differently:
| gene | DRSC id | stable siRNA reporter change | miRNA reporter change | stable assay Renilla, run 1 (luminescence) | stable assay firefly, run 1 (luminescence) | outcome |
| --- | --- | --- | --- | --- | --- | --- |
| wde (windei) | DRSC05955 | – | – | 8499 | 3.35e5 | inactive |
| Muc11A (Mucin 11A) | DRSC19498 | – | – | 5450 | 4.71e5 | inactive |
| CycE (Cyclin E) | DRSC03295 | – | – | 8433 | 1.73e6 | inactive |
| CycE (Cyclin E) | DRSC03296 | reporter ratio lowered past the hit cutoff | – | 4423 | 5.53e5 | active |
